Laboratory results taken from PubChem BioAssay AID1347076 (National Center for Advancing Translational Sciences (NCATS), 2019).
About 13,000 (3.2%) of roughly 400,000 compounds were called active. This list was built around the results that the source calls inconclusive (neither active nor inactive); the mix of calls is not that of the screen. Calls come from the whole dose curve; as a rule, active = well fitted cell-killing curve with a large enough effect; inconclusive = small, poorly fitted or top-dose-only effect, or effect the other way; inactive = flat fitted curve, though single readings scatter. Potencies beside an inconclusive call are fits to weak or partial responses and may not hold up.

Assay: qHTS assay for MDR1-selective chemotherapeutics: Primary screen using the drug-selected MDR subline cells KB-V1; note: nearly all actives have a fitted effect of over 60% in size
Conditions: KB-V1 MDR cells viability, CellTiter-Glo, 72 h; activity change, negative = cytotoxicity: at 46.1 µM (top of the series)
In short: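 Compound-treated KB-V1 multidrug-resistant cells, 72 h, 37 degrees C; viability by CellTiter-Glo. Fitted qHTS curves give the values.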
% is set by controls: 0 for no effect and ±100 for the full control effect; potency is the fitted concentration of half-maximal effect.

Compound	Potency	activity change, negative = cytotoxicity
CC(=O)O[C@]1(C(C)=O)CC[C@H]2[C@@H]3C=C(Cl)C4=CC(=O)CC[C@]4(C)[C@H]3CC[C@@]21C	inconclusive: 9.2 µM [cytotoxic, partial curve]	
CCCc1ccc(C(=O)NNC(=O)c2ccc(Br)cc2)cc1	inconclusive: 9.2 µM [cytotoxic, partial curve]	
O=C(Nc1sc2c(c1C(=O)O)CCCC2)C(=O)N1CCOCC1	inconclusive: 16.4 µM [rising, partial curve, poor fit]	
CCOC(=O)N1CCc2c(sc3c2c(=O)n(Cc2ccccc2)c(=O)n3CC(=O)NCCOC)C1	inconclusive: 20.6 µM [cytotoxic, single point]	
COc1cc(C(=O)Nc2ccc3ccccc3c2)cc(OC)c1OC	inconclusive: 1.64 µM [cytotoxic, full curve]	
C/C(=N/Nc1ccc(C(=O)O)cc1)c1ccc2c(c1)Nc1ccccc1S2		inactive: -11%
Cc1nn(-c2ccccc2)c(Cl)c1/C=N/NC(N)=O	active: 2.06 µM	
Cc1ccc(NC(=O)c2oc(=O)c3ccccc3c2-c2ccccc2)c(C)c1	inconclusive: 20.6 µM [cytotoxic, partial curve, poor fit]	
Cc1cc(C)cc(OCc2cc(=O)n3c(-c4ccccc4)csc3n2)c1	inconclusive: 3.26 µM [rising, full curve]	
CCN(CC)CCCNC(=O)c1cn(C)c(=O)c2c1c1ccccc1n2C	inconclusive: 8.2 µM [rising, partial curve, poor fit]	
CC1CN(C(=O)c2ccccc2Oc2ccccc2)CC(C)O1 (stereo not given)		inactive: -28.7%
O=C(c1cnn(-c2ccc(F)cc2)c1-n1cccc1)N1CCN(c2ccc(Cl)cc2)CC1	inconclusive: 16.4 µM [cytotoxic, partial curve]	
CCCCOc1ccc(C(=O)N(Cc2ccco2)C2CCS(=O)(=O)C2)cc1 (stereo not given)		inactive: -21.6%
O=S(=O)(c1ccccc1)c1nc(-c2ccc(F)cc2)oc1NCC1CCCO1 (stereo not given)	active: 3.66 µM	
COc1ccc2c(c1)Sc1ccccc1N2	inconclusive: 18.4 µM [cytotoxic, single point]	
Cc1ccc(C(=O)N(CC(=O)NC2CCCC2)c2cccc(F)c2)s1	inconclusive: 2.06 µM [cytotoxic, full curve, poor fit]	
COc1ccc(-c2nsc3c(N4CCN(S(=O)(=O)c5ccccc5F)CC4)ncnc23)cc1		inactive: 16.3%
COc1cc(C(=O)N2CCN(c3ncnc4sc(C)c(C)c34)CC2)cc(OC)c1OC	inconclusive: 2.91 µM [cytotoxic, full curve]	
CN(C)CCNc1nc2sc3c(c2c(=O)n1-c1ccc(F)cc1)CCCCC3		inactive: 14.4%
CN(Cc1cccc2cnccc12)C(=O)c1cc(COc2ccc(F)cc2Cl)on1	inconclusive: 2.31 µM [cytotoxic, full curve]	
COc1cccc(NC(=O)Cn2cc(S(=O)(=O)Cc3ccccc3F)c3ccccc32)c1		inactive: -20.6%
S=C(NCCCn1ccnc1)Nc1ccc(Cl)cc1Cl		inconclusive: 0.38%
CCCSCCCNC(=O)Cn1c(=O)c2cccn2c2ccccc21		inactive: 5.04%

Compound	Potency	activity change, negative = cytotoxicity
CCc1ccc(C(=O)C(C)OC(=O)Cc2n[nH]c(=O)c3ccccc23)cc1 (stereo not given)	inconclusive: 8.2 µM [cytotoxic, partial curve]	
S=c1[nH]nc(-c2cc(-c3ccccc3)n[nH]2)n1/N=C/C(Br)=C/c1ccccc1	inconclusive: 20.6 µM [cytotoxic, single point]	
CCOc1cccc2sc(N(CCN(C)C)C(=O)c3cc4ccccc4cc3OC)nc12		inactive: 2.56%
Cc1cc(Cl)cc(Br)c1OCCCN1C(=O)NC(C)(C)C1=O	active: 18.4 µM	
FC(F)(F)c1ccccc1Cc1c(-c2cccc(Cl)c2)nc2ccc(Cl)cn12		inactive: 2.15%
O=C(Nc1csc([N+](=O)[O-])c1)Nc1ccccc1Cl	inconclusive: 18.4 µM [cytotoxic, single point]	
CCCn1c(SCC(=O)Nc2cc(Cl)ccc2OC)nc(O)cc1=O	inconclusive: 29.1 µM [rising, single point]	
Cc1ccc(-c2noc(CCCC(=O)Nc3cccnc3)n2)cc1	inconclusive: 18.4 µM [cytotoxic, single point]	
CCCC(C(=O)NC1CCCC1)N(Cc1cccs1)C(=O)c1snc(C(N)=O)c1N (stereo not given)	active: 2.31 µM	
N#Cc1ccccc1COC(=O)c1cccnc1N	inconclusive: 20.6 µM [cytotoxic, single point]	
COc1cccc(/C=N/NC(N)=S)c1OCc1cccc(Cl)c1	inconclusive: 29.1 µM [cytotoxic, single point]	
CO/N=C(\Cn1ncc(NC2CCCCC2)c(Br)c1=O)c1ccc(Cl)cc1	inconclusive: 29.1 µM [cytotoxic, single point]	
CCN(C(=O)C(C)Sc1nnc(-c2ccncc2)n1C)C1CCCCC1 (stereo not given)	active: 16.4 µM	
CCc1ccccc1NC(=O)C1CCN(S(=O)(=O)c2ccc3c(c2)N(C(C)=O)CCO3)CC1	inconclusive: 18.4 µM [rising, single point]	
Cc1csc(SCCn2c(N3CCN(c4ccccc4)CC3)nc3c2c(=O)[nH]c(=O)n3C)n1	active: 20.6 µM	
Cc1csc(NC(=O)CSc2nnc(-c3cc(C)on3)o2)n1		inactive: 15.7%
Cc1cccc(OCCC(=O)Nc2ccc(F)c(F)c2)c1	inconclusive: 32.6 µM [cytotoxic, partial curve, poor fit]	
Cc1ccc(OCC(=O)Nc2ccc3c(c2)nc(CCN2CCCCC2)n3C)cc1		inactive: 8.57%
CCCCN1C(=O)NC(c2cccc([N+](=O)[O-])c2)C(C(=O)OCC)=C1C (stereo not given)	inconclusive: 23.1 µM [cytotoxic, partial curve, poor fit]	
CCOc1ccc(CCNC(=O)c2ccc(CNS(=O)(=O)c3ccccc3)cc2)cc1OCC	inconclusive: 29.1 µM [cytotoxic, single point]	
CCn1ncc(Br)c1C(=O)Nc1ccc(C(=O)OC(C)C)cc1	inconclusive: 14.6 µM [cytotoxic, partial curve]	
O=C1Nc2ccccc2N(C(=O)c2c(F)cccc2F)C1c1nc2ccccc2[nH]1 (stereo not given)		inactive: -20.6%

In a second layout: results already given.

| Compound | Potency | activity change, negative = cytotoxicity |
| --- | --- | --- |
| Cc1cc(C)cc(OCc2cc(=O)n3c(-c4ccccc4)csc3n2)c1 | inconclusive: 3.26 µM [rising, full curve] |  |
| COc1ccc2c(c1)Sc1ccccc1N2 | inconclusive: 18.4 µM [cytotoxic, single point] |  |
| Cc1ccc(OCC(=O)Nc2ccc3c(c2)nc(CCN2CCCCC2)n3C)cc1 |  | inactive: 8.57% |
